{"source": "PubChem BioAssay AID504444", "about": "(National Center for Advancing Translational Sciences (NCATS), 2011)", "note": "Hit rate of the full screen: of about 360,000 compounds, about 7,500 (2.1%) were called active. Inconclusive results, whose numbers are uncertain, are shown with a selection of clear calls. Calls come from the whole dose curve; as a rule, active = well fitted inhibition curve with a large enough effect; inconclusive = small, poorly fitted or top-dose-only effect, or effect the other way; inactive = flat fitted curve, though single readings scatter. Potencies beside an inconclusive call are fits to weak or partial responses and may not hold up. % is set by controls: 0 for no effect and ±100 for the full control effect; potency is the fitted concentration of half-maximal effect."}
{"experiment": "Nrf2 qHTS screen for inhibitors; note: nearly all actives have a fitted effect of over 60% in size", "details": "A549 ARE-Fluc reporter, luciferase luminescence, 18-24 h; activity change, negative = inhibition: at 46 µM (top of the series)", "outline": "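A549 ARE_Fluc cells (5000/well, 5% FBS OPTI-MEM) pre-incubated 2 h, then treated with compounds 18-24 h at 37C/5% CO2 in concentration-response. CellTiter-Fluor viability read first; BugLite luciferase luminescence after 15 min at room temperature gives Nrf2 activity.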"}
{"smiles": "CCCCCc1ccc(C(=O)CCCC)c(=S)[nH]1", "Potency": "inconclusive: 16.4 µM [activator, partial curve, poor fit]"}
{"smiles": "O=C(Nc1ccccc1)NC1CCN(Cc2c(F)cccc2Cl)CC1", "Potency": "inconclusive: 10.3 µM [falling, partial curve, poor fit]"}
{"smiles": "O=C(C1CCN(S(=O)(=O)c2cccnc2)CC1)N1CCN(c2ccc(Cl)cc2)CC1", "Potency": "inconclusive: 20.6 µM [falling, single point]"}
{"smiles": "Cc1ccc(S(=O)(=O)c2cn(C)c3cc(N4CCCCC4)c(F)cc3c2=O)cc1", "activity change, negative = inhibition": "inactive: -16.9%"}
{"smiles": "CC(/C=N/NC(=O)c1nnn(-c2nonc2N)c1C(C)C)=C\\c1ccco1", "Potency": "inconclusive: 29.1 µM [falling, partial curve, poor fit]"}
{"smiles": "O=C1C2C(c3ccccc3)CC=CC2C(c2cccc([N+](=O)[O-])c2)N1Cc1ccccc1", "note": "(stereo not given)", "Potency": "inconclusive: 20.6 µM [falling, single point]"}
{"smiles": "CCCCC[C@H]1CN(CCc2ccccc2)C(=O)[C@@H]1CC(=O)NCc1ccc(OC)cc1", "Potency": "active: 25.9 µM"}
{"smiles": "O=C(CSc1nc2ccccc2c(=O)n1CCC(=O)N1CCN(c2ccccc2)CC1)NCC1CCCO1", "note": "(stereo not given)", "Potency": "inconclusive: 6.51 µM [falling, single point]"}
{"smiles": "CCc1c(C)c2ccc(O)c(CN3CCN(c4ccccc4)CC3)c2oc1=O", "Potency": "inconclusive: 29.1 µM [activator, single point]"}
{"smiles": "CCCCc1c(O)nc(SCC(=O)c2ccccc2)[nH]c1=O", "Potency": "inconclusive: 20.6 µM [activator, single point]"}
{"smiles": "O=C(c1ccccc1)c1ccc(-c2ccc(O)cc2)cc1", "Potency": "inconclusive: 29.1 µM [falling, single point]"}
{"smiles": "O=C(NNC(=O)c1cccc(C(F)(F)F)c1)c1ccncc1", "Potency": "inconclusive: 29.1 µM [falling, single point]"}
{"smiles": "COc1nc(Nc2cccc(F)c2)nc(OC)n1", "activity change, negative = inhibition": "inactive: 0.658%"}
{"smiles": "O=[N+]([O-])c1ccccc1S(=O)(=O)N1CCN(C2CCCC2)CC1", "activity change, negative = inhibition": "inactive: -19.9%"}
{"smiles": "Cc1cccc(OCC(=O)NC2CCCc3ccccc32)c1C", "note": "(stereo not given)", "Potency": "inconclusive: 29.1 µM [falling, single point]"}
{"smiles": "Cc1ccc(N2CCN(c3nc4c(S(=O)(=O)c5ccc(C)c(C)c5)nnn4c4ccccc34)CC2)c(C)c1", "activity change, negative = inhibition": "inactive: 20%"}
{"smiles": "CC(=O)c1cccc(NC(=O)CSc2ccc(-c3sc(C)nc3C)nn2)c1", "activity change, negative = inhibition": "inactive: -15.3%"}
{"smiles": "Cc1c(C(=O)N(Cc2ccc(N(C)C)cc2)CC2CCCO2)oc2ccc(Br)cc12", "note": "(stereo not given)", "Potency": "inconclusive: 23.1 µM [falling, single point]"}
{"smiles": "C#CCSc1nc2ccccc2c(=O)n1CC=C", "activity change, negative = inhibition": "inactive: -9%"}
{"smiles": "O=C1CC(c2ccccc2)CN1C(=O)c1ccccc1", "note": "(stereo not given)", "Potency": "inconclusive: 29.1 µM [activator, single point]"}
{"smiles": "Cn1nc(C(F)(F)F)c(/C=N/OC(=O)c2ccccc2)c1Sc1ccc(Cl)cc1", "Potency": "active: 14.6 µM"}
{"smiles": "COc1cc2c(C(=O)N(C)c3ccc(F)cc3)cn(C)c(=O)c2cc1OC", "activity change, negative = inhibition": "inactive: 13.6%"}
{"smiles": "COc1ccc(N2CCN(C(C)C(=O)N(C)Cc3ccccc3)CC2)cc1", "note": "(stereo not given)", "Potency": "inconclusive: 16.4 µM [falling, partial curve, poor fit]"}
{"smiles": "COc1ccc(NC(=O)c2cc3ccccc3o2)cc1", "Potency": "inconclusive: 5.17 µM [activator, partial curve]"}
{"smiles": "O=C(NCCc1nc(-c2ccccc2)cs1)c1ccc(Br)cc1", "Potency": "inconclusive: 18.4 µM [falling, single point]"}
{"smiles": "CCN(CC)S(=O)(=O)c1ccc2oc(SCC(=O)Nc3cc(C)on3)nc2c1", "Potency": "inconclusive: 20.6 µM [falling, single point]"}
{"smiles": "Cc1ccc(C2CCN(C(=O)Nc3ccc(F)cc3)C2)cc1", "note": "(stereo not given)", "Potency": "inconclusive: 7.31 µM [activator, partial curve]"}
{"smiles": "O=C(/C=C/c1ccccc1)NCCc1c[nH]c2ccccc12", "Potency": "inconclusive: 20.6 µM [activator, single point]"}
{"smiles": "O=C(CSc1nccc(-c2ccc(Br)cc2)n1)NCCc1ccccc1", "Potency": "inconclusive: 7.31 µM [falling, partial curve, poor fit]"}
{"smiles": "CSc1ncc(Cl)c(C(=O)Nc2cccnc2)n1", "activity change, negative = inhibition": "inactive: 1.76%"}
{"smiles": "Cc1cc(C)c2c(n1)sc1c(=O)n(-c3cc(Cl)ccc3C)nnc12", "Potency": "inconclusive: 18.4 µM [falling, single point]"}
{"smiles": "Cc1cccc(C=Nc2ccc3c(c2)oc2ccccc23)c1O", "Potency": "inconclusive: 10.3 µM [activator, partial curve]"}
{"smiles": "O=C(NCc1ccccc1)/C(=C/c1ccc(OC(F)F)cc1)c1ccccc1", "Potency": "inconclusive: 25.9 µM [falling, single point]"}
{"smiles": "CCOCCc1nnc(NC(=O)Cc2c(F)cccc2Cl)s1", "Potency": "inconclusive: 3.26 µM [falling, full curve]"}
{"smiles": "CC(Nc1cc(N2CCN(S(C)(=O)=O)CC2)ccc1[N+](=O)[O-])c1ccccc1", "note": "(stereo not given)", "Potency": "inconclusive: 16.4 µM [falling, partial curve, poor fit]"}
{"smiles": "CC1(C)c2ccccc2-c2nc3ccccc3cc2C1O", "note": "(stereo not given)", "Potency": "inconclusive: 20.6 µM [activator, single point]"}
{"smiles": "CCOc1ccc(N(CC)S(=O)(=O)N2CCCC(C(=O)NCCc3ccc(OC)cc3)C2)cc1", "note": "(stereo not given)", "Potency": "inconclusive: 18.4 µM [falling, partial curve, poor fit]"}
{"smiles": "COc1ccc(NC(=S)Nc2nc(CC(=O)Nc3ccccc3OC)cs2)cc1", "Potency": "inconclusive: 29.1 µM [falling, single point]"}
{"smiles": "c1ccc(-c2cnc(-c3ccccc3)nc2)cc1", "Potency": "inconclusive: 4.11 µM [activator, full curve]"}
{"smiles": "C#CCOCCOCCOCCNc1nc(N2CCN(C(=O)CCCCCCCCCCNC(=O)[C@H](CCCCN)n3cc(CCCC(=O)O)nn3)CC2)nc(N2CCN(C(=O)CCCCCCCCCCNC(=O)[C@H](CCCCN)n3cc(CCCC(=O)O)nn3)CC2)n1", "activity change, negative = inhibition": "inactive: 9.73%"}
{"smiles": "COCCCNC(=O)c1ccc(Cn2c(SCc3cccc(C)c3)nc3cccnc32)cc1", "Potency": "inconclusive: 29.1 µM [activator, single point]"}
{"smiles": "CCOC(=O)C(=CNc1cc(C)ccc1C)C(=O)OCC", "Potency": "inconclusive: 18.4 µM [falling, partial curve, poor fit]"}
{"smiles": "Cc1ccc(O)c(C(=O)c2cnc3c(c2)COc2ccccc2-3)c1", "Potency": "inconclusive: 1.46 µM [falling, partial curve, poor fit]"}
{"smiles": "COc1ccc(Nc2ncnc3c2c(C)c(C)n3CCCN(C)C)cc1", "Potency": "inconclusive: 20.6 µM [activator, partial curve]"}
{"smiles": "Fc1ccc(CCNC(=S)Nc2ccc(F)c(Cl)c2)cc1", "Potency": "inconclusive: 29.1 µM [falling, single point]"}
{"smiles": "CC(C)Cc1nnc(NC(=O)CCC(=O)N2CCN(c3ccc([N+](=O)[O-])cc3)CC2)s1", "Potency": "inconclusive: 29.1 µM [falling, single point]"}
{"smiles": "CCC(C)c1ccc(NC(=S)Nc2ccc(OC)cc2)cc1", "note": "(stereo not given)", "Potency": "inconclusive: 2.91 µM [activator, full curve, poor fit]"}
{"smiles": "O=S(=O)(c1ccccc1)n1ccc(-c2cnc(-c3ccccc3)s2)n1", "activity change, negative = inhibition": "inactive: -17.2%"}
{"smiles": "CCn1c(N2CCN(S(=O)(=O)c3ccccc3)CC2)nc2ccccc21", "Potency": "inconclusive: 0.103 µM [falling, full curve, poor fit]"}
{"smiles": "N/C(=N\\OC(=O)c1ccc(F)cc1)c1ccccc1", "Potency": "inconclusive: 18.4 µM [activator, partial curve]"}
{"smiles": "O=S(=O)(c1ccccc1)c1nnn2c1nc(NCc1ccccc1)c1sccc12", "activity change, negative = inhibition": "inactive: -2.41%"}
{"smiles": "Cc1ccc2nc(NC(=O)C3CCN(S(=O)(=O)c4cccnc4)CC3)sc2c1", "Potency": "inconclusive: 29.1 µM [falling, single point]"}
{"smiles": "CNC(=S)N/N=C/c1cn(CCOc2cccc(OC)c2)c2ccccc12", "Potency": "inconclusive: 16.4 µM [falling, partial curve, poor fit]"}
{"smiles": "O=C(CSc1ccc2c(c1)OCCO2)Nc1ccc2c(c1)OCO2", "Potency": "inconclusive: 14.6 µM [falling, partial curve, poor fit]"}
{"smiles": "CC(C)(C)c1ccc(-n2ncc3c2CCCC3NC(=O)C2(C(N)=O)CC2)cc1", "note": "(stereo not given)", "Potency": "active: 1.3 µM"}
{"smiles": "O=C(COC(=O)c1ccc2ncsc2c1)Nc1ncc(Cl)cc1Cl", "Potency": "inconclusive: 23.1 µM [activator, partial curve, poor fit]"}
{"smiles": "O=C(NCc1cccs1)c1ccc(Cn2c(SCc3ccc(F)cc3)nc3cccnc32)cc1", "Potency": "inconclusive: 29.1 µM [falling, single point]"}
{"smiles": "CC(C)C(C)(C#N)NC(=O)CSc1nc2scc(-c3ccccc3)c2c(=O)[nH]1", "note": "(stereo not given)", "Potency": "inconclusive: 25.9 µM [falling, partial curve, poor fit]"}
{"smiles": "COc1ccc(NC(=O)C#Cc2ccccc2)cc1OC", "Potency": "active: 8.2 µM"}
{"smiles": "Cc1ccc(/C(O)=C2\\C(=O)C(=O)N(CCN(C)C)C2c2ccccc2F)cc1", "note": "(stereo not given)", "Potency": "inconclusive: 23.1 µM [activator, partial curve, poor fit]"}
{"smiles": "CCCn1ncc(/C=N/O)c1C", "Potency": "inconclusive: 5.8 µM [falling, partial curve, poor fit]"}
{"smiles": "CCOC(=O)CC1(C)NC(=O)c2c(C)sc(C(=O)OCC)c2N1", "note": "(stereo not given)", "activity change, negative = inhibition": "inactive: 13.3%"}
{"smiles": "CN(C(=O)c1cccc(NC(=O)Cc2cccc(NC(=O)C3CCN(C(=O)C4CCCCC4)CC3)c2)c1)C1CC1", "Potency": "inconclusive: 20.6 µM [falling, single point]"}
{"smiles": "CCN(Cc1ccccc1)C(=O)c1sc2nc3n(c(=O)c2c1C)CCCC3", "Potency": "active: 23.1 µM"}
{"smiles": "CCOC(=O)N1CCN(C(=O)c2oc3ccc(S(=O)(=O)N4CC(C)CC(C)C4)cc3c2C)CC1", "note": "(stereo not given)", "Potency": "inconclusive: 29.1 µM [falling, single point]"}
